Measured values reported in paper PMC9848351, “Discovery of new pyridine-quinoline hybrids as competitive and non-competitive PIM-1 kinase inhibitors with apoptosis induction and caspase 3/7 activation capabilities” (Journal of Enzyme Inhibition and Medicinal Chemistry, 2023).

Key:
[1] = system: liver cancer cell line (HepG-2); experiment: MTT anticancer activity, HepG-2; type: cell-based, human; details: selectivity index, Wi-38 versus HepG-2
Procedure: (§1) Anticancer effect of the above-mentioned compounds was evaluated using four human cancer cell lines. Colon cancer cells (Caco-2), myeloid leukaemia cell line (NFS-60), liver cancer cell line (HepG-2) and prostate cancer cell line (PC-3) using MTT method was used for assaying cell viability[26] (Supplementary Page S55).
(§2) All final compounds were evaluated against four human cancer cell lines namely; liver cancer (HepG2) (ATCC® HB-8065™), colon cancer (Caco-2) (ATCC® HTB-37™), leukaemia cancer (NFS-60) (ATCC® CRL-1838™), and prostate cancer (PC-3) (ATCC® CRL-1435™) using doxorubicin (Dox) as the reference drug being widely used in tumour management utilising microculture MTT assay, declared by Mosmann[26] (Table 1 in Supplementary Material, Figures 5–8). […]
(§3) MTT method was used for assaying cell viability 25. Twenty microliters of 5 mg/ml MTT (Sigma, USA) was added to each well and the plate was incubated at 37 °C for 3 h. Then MTT solution was removed, 100 µl DMSO was used and the absorbance of each well was measured with a microplate reader ( BMG LabTech, Germany) at 570 nm. The effective concentration (IC 50) and safe dose (EC100) values of the tested compounds that cause 50% and 100% cell viability were estimated by the Graphpad Instat software.
(§4) Determination of the anticancer activity
(§5) Anticancer effect of the above-mentioned compounds was evaluated using four human cancer cell lines. Colon cancer cells (Caco-2) were maintained in DMEM (Lonza, USA) containing 10% FBS while myeloid leukemia cell line (NFS-60), liver cancer cell line (HepG-2) and prostate cancer cell line (PC-3) were cultured in RPMI-1640 (Lonza, USA) supplemented with 10% FBS. All cancer cells (5x10^3 cells/well) were seeded in sterile 96-well plates. After 24h, serial concentrations of the tested compounds and Dox were incubated with four cancer cell lines for 72 h at 37 °C in 5% CO2 incubator. MTT method was done as described above. The Graphpad Instat software was used for calculating the half maximal inhibitory concentration (IC50) values. Furthermore, phase contrast inverted microscope with a digital camera (Olympus, Japan) was used for investigating […]
(§6) safest anticancer compounds. […]

[2] = system: myeloid leukaemia cell line (NFS-60); experiment: MTT anticancer activity, NFS-60; type: cell-based; details: selectivity index, Wi-38 versus NFS-60
Procedure: as §1, §2, §3, §4, §5, §6

[3] = system: prostate cancer cell line (PC-3); experiment: MTT anticancer activity, PC-3; type: cell-based, human; details: for PC-3 SI: selectivity index, Wi-38 versus PC-3; for PC-3 LE: ligand efficiency from IC50 and number of heavy atoms; for PC-3 LLE: ligand lipophilic efficiency, potency in terms of lipophilicity
Procedure: as §1, §2, §3, §4, §5, §6

| Compound | HepG-2 SI [1] | NFS-60 SI [2] | PC-3 SI [3] | PC-3 LE [3] | PC-3 LLE [3] |
| --- | --- | --- | --- | --- | --- |
| N#Cc1c(-c2cc3ccccc3nc2N2CCOCC2)cc(-c2cccc(O)c2)[nH]c1=O [5a, 6-(3-Hydroxyphenyl)-4-(morpholin-4-yl-quinolin-3-yl)-2-oxo-1,2-dihydropyridine-3-carbonitrile] | 1.753 | 1.907 | 0.842 |  |  |
| N#Cc1c(-c2cc3cc(Cl)ccc3nc2N2CCOCC2)cc(-c2cccc(O)c2)[nH]c1=O [5b, 4-(6-Chloro-2-morpholin-4-yl-quinolin-3-yl)-6-(3-hydroxyphenyl)-2-oxo-1,2-dihydropyridine-3-carbonitrile] | 32.386 | 18.348 | 6.552 | 0.31 | 3.52 |
| COc1ccc2nc(N3CCOCC3)c(-c3cc(-c4cccc(O)c4)[nH]c(=O)c3C#N)cc2c1 [5c, 6-(3-Hydroxyphenyl)-4-(6-methoxy-2-morpholin-4-yl-quinolin-3-yl)-2-oxo-1,2-dihydropyridine-3-carbonitrile] | 94.342 | 39.613 | 26.360 | 0.30 | 4.12 |
| N#Cc1c(-c2cc3ccccc3nc2N2CCCCC2)cc(-c2cccc(O)c2)[nH]c1=O [5d, 6-(3-Hydroxyphenyl)-2-oxo-4-(2-(piperidin-1-yl)quinoline-3-yl)-1,2-dihydropyridine-3-carbonitrile] | 0.333 | 0.420 | 0.560 |  |  |
| N#Cc1c(-c2cc3cc(Cl)ccc3nc2N2CCCCC2)cc(-c2cccc(O)c2)[nH]c1=O [5e, 4-(6-Chloro-2-(piperidin-1-yl)quinoline-3-yl)-6-(3-hydroxyphenyl)-2-oxo-1,2-dihydropyridine-3-carbonitrile] | 0.764 | 0.440 | 0.675 |  |  |
| COc1ccc2nc(N3CCCCC3)c(-c3cc(-c4cccc(O)c4)[nH]c(=O)c3C#N)cc2c1 [5f, 6-(3-Hydroxyphenyl)-4-(6-methoxy-2-(piperidin-1-yl)quinolin-3-yl)-2-oxo-1,2-dihydropyridine-3-carbonitrile] | 0.788 | 0.696 | 0.661 |  |  |
| N#Cc1c(-c2cc3ccccc3nc2N2CCOCC2)cc(-c2cccc(O)c2)nc1S [6a, 6-(3-Hydroxyphenyl)-4-(2-morpholin-4-yl-quinolin-3-yl)-2-mercaptopyridine-3-carbonitrile] | 2.446 | 1.341 | 1.425 |  |  |
| N#Cc1c(-c2cc3cc(Cl)ccc3nc2N2CCOCC2)cc(-c2cccc(O)c2)nc1S [6b, 4-(6-Chloro-2-morpholin-4-yl-quinolin-3-yl)-6-(3-hydroxyphenyl)-2-mercaptopyridine-3-carbonitrile] | 2.961 | 0.676 | 1.160 |  |  |
| COc1ccc2nc(N3CCOCC3)c(-c3cc(-c4cccc(O)c4)nc(S)c3C#N)cc2c1 [6c, 6-(3-Hydroxyphenyl)-4-(6-methoxy-2-morpholin-4-yl-quinolin-3-yl)-2-mercaptopyridine-3-carbonitrile] | 4.434 | 2.593 | 3.730 |  |  |
| N#Cc1c(-c2cc3ccccc3nc2N2CCCCC2)cc(-c2cccc(O)c2)nc1S [6d, 6-(3-Hydroxyphenyl)-4-(2-(piperidin-1-yl)quinolin-3-yl)-2-mercaptopyridine-3-carbonitrile] | 8.664 | 3.498 | 5.622 |  |  |
| COc1ccc2nc(N3CCCCC3)c(-c3cc(-c4cccc(O)c4)nc(S)c3C#N)cc2c1 [6e, 6-(3-Hydroxyphenyl)-4-(6-methoxy-2-(piperidin-1-yl)quinolin-3-yl)-2-mercaptopyridine-3-carbonitrile] | 12.705 | 2.876 | 3.613 | 0.30 | 2.53 |
| CC(=O)Oc1cccc(-c2cc(-c3cc4ccccc4nc3N3CCOCC3)c(C#N)c(=O)[nH]2)c1 [7a, 3-(5-Cyano-4-(2-morpholin-4-yl-quinolin-3-yl)-6-oxo-1,6-dihydropyridin-2-yl)phenyl acetate] | 3.515 | 1.200 | 1.243 |  |  |
| CC(=O)Oc1cccc(-c2cc(-c3cc4cc(Cl)ccc4nc3N3CCOCC3)c(C#N)c(=O)[nH]2)c1 [7b, 3-(4-(6-Chloro-2-morpholin-4-yl-quinolin-3-yl)-5-cyano-6-oxo-1,6-dihydropyridin-2-yl)phenyl acetate] | 1.378 | 1.308 | 1.037 |  |  |
| COc1ccc2nc(N3CCOCC3)c(-c3cc(-c4cccc(OC(C)=O)c4)[nH]c(=O)c3C#N)cc2c1 [7c, 3-(5-Cyano-4-(6-methoxy-2-morpholin-4-yl-quinolin-3-yl)-6-oxo-1,6-dihydropyridin-2-yl)phenyl acetate] | 0.964 | 0.895 | 1.356 |  |  |
| N#Cc1c(-c2cc3ccccc3nc2N2CCOCC2)cc(-c2cccc(O)c2)nc1OCC(=O)O [9a, 2-((3-Cyano-6-(3-hydroxyphenyl)-4-(2-morpholin-4-yl-quinolin-3-yl)pyridin-2-yl)oxy)acetic acid] | 2.033 | 1.723 | 1.877 |  |  |
| N#Cc1c(-c2cc3cc(Cl)ccc3nc2N2CCOCC2)cc(-c2cccc(O)c2)nc1OCC(=O)O [9b, 2-((4-(6-Chloro-2-morpholin-4-yl-quinolin-3-yl)-3-cyano-6-(3-hydroxyphenyl)pyridin-2-yl)oxy)acetic acid] | 3.767 | 0.450 | 1.757 |  |  |
| COc1ccc2nc(N3CCOCC3)c(-c3cc(-c4cccc(O)c4)nc(OCC(=O)O)c3C#N)cc2c1 [9c, 2-((3-Cyano-6-(3-hydroxyphenyl)-4-(6-methoxy-2-morpholin-4-yl-quinolin-3-yl)pyridin-2-yl)oxy)acetic acid] | 3.183 | 2.872 | 5.974 |  |  |
| N#Cc1c(-c2cc3ccccc3nc2N2CCOCC2)cc(-c2cccc(O)c2)nc1OCC(=O)Nc1ccccc1 [11a, 2-((3-Cyano-6-(3-hydroxyphenyl)-4-(2-morpholin-4-yl-quinolin-3-yl)pyridin-2-yl)oxy)-N-phenylacetamide] | 0.429 | 1.143 | 0.911 |  |  |
| N#Cc1c(-c2cc3ccccc3nc2N2CCOCC2)cc(-c2cccc(O)c2)nc1OCC(=O)Nc1ccc(Cl)cc1 [11b, N-(4-Chlorophenyl)-2-((3-cyano-6-(3-hydroxyphenyl)-4-(2-morpholin-4-yl-quinolin-3-yl)pyridin-2-yl)oxy)acetamide] | 4.713 | 1.862 | 2.592 |  |  |
| COc1ccc(NC(=O)COc2nc(-c3cccc(O)c3)cc(-c3cc4ccccc4nc3N3CCOCC3)c2C#N)cc1 [11c] | 0.359 | 0.918 | 0.635 |  |  |
| N#Cc1c(-c2cc3cc(Cl)ccc3nc2N2CCOCC2)cc(-c2cccc(O)c2)nc1OCC(=O)Nc1ccccc1 [11d, 2-((4-(6-Chloro-2-morpholin-4-yl-quinolin-3-yl)-3-cyano-6-(3-hydroxyphenyl)pyridin-2-yl)oxy)-N-phenylacetamide] | 2.336 | 1.154 | 1.801 |  |  |
